Publication PMC3335845 (PLoS ONE, 2012)

Assay: general procedure: Fmoc solid-phase peptide synthesis; rink amide MBHA resin
Conditions: whole synthesis, analytical HPLC

**Q.** For LLP2A-HYNIC, which “final HPLC purity” value is on record?
**A.** >95%
